These results are taken from US20130254944A1, “Herbicide Tolerant Soybeans and Methods of Use” (PIONEER HI BRED INTERNATIONAL INC, priority 2012, published 2013).

This series concerns soybean having both the Als1 and Als2 mutations. Description: Greenhouse postemergence test of ALS-inhibiting herbicides and isobole analysis, soybean with Als1 and Als2 mutations. It is filed as in vivo. Conditions: interaction of Als1 and Als2 mutations. As for the experimental part:
Soybean lines having wild type als1 & 2 genes, the Als1 mutation, the Als2 mutation, or both the Als1 and Als2 mutations were evaluated for their response to various herbicides. Two seeds from each line were planted into 4-inch pots containing Redi-Earth potting mix (Sun Gro Horticulture Canada Ltd. 52130 RR65, Seba Beach, Alberta TOE 2B0), with two replications planted for each treatment. Pots were placed in flats at 15 pots/flat, and the resulting plants were grown in a greenhouse environment supplemented with lighting (16 hr photoperiod) for the duration of the test. Selected herbicides representing the mode of action that inhibits the acetolactate synthase enzyme, also known as the acetohydroxyacid synthase enzyme, were applied postemergence to soybean when soybean plants were at the V2 growth stage, which is the stage at which the first two trifoliolate leaves were expanded.
Eleven active ingredients representing the five chemical families with herbicidal activity on the acetolactate synthase enzyme were tested. These herbicides can cause a phytotoxic response in wild type soybean plants. The five chemical families tested were sulfonylaminocarbonyltriazolinone (also known as triazolinone), imidazolinone, sulfonylurea, pyrimidinylthiobenzoate, and triazolopyrimidine. Application rates ranged from 0.5 times to eight times the currently labeled application rate for each active ingredient with spray application volume at 30 gallons/acre. The application rates tested were 0.5×, 1×, 2×, 4× and 8× the label rate for each herbicide. Herbicidal active ingredients were applied as formulated materials dispersed in water containing 0.25% nonionic surfactant (Trend® 90).
The test was evaluated by visually scoring plant phenotype 14 days after the herbicides were applied. Controls consisted of soybean plants of the same variety that received no herbicide treatments for each of all the varieties tested. Soybean response was recorded on a zero to 100 visual scale in which zero is no phytotoxic response and 100 is plant death fourteen days after the herbicides were applied. Soybean response (percent phytotoxicity) to postemergence applications of herbicides inhibiting the acetolactate synthase enzyme test results are shown in Table 1.
Results in Table 1 were evaluated using the isobole method for analyzing interactions. […] Here the biologically active agents that are being assessed for interaction (synergy) are gene mutations in soybean. The effectiveness of the genes in providing improved tolerance to ALS-inhibiting herbicides was assessed by applying increasing doses of herbicides to each soybean line with its mutation(s).
An isobole reduces a dose response surface in three dimensional space to a two dimensional plot by fixing a defined response level (e.g., 50% response). The isobole plot is a graph in the Cartesian plane with a straight line connecting the isoeffective rates of the individual components of the combination. This straight line represents expected responses for zero interactive combinations. The isoeffective rate used to create the isobole is often the EC50, the rate estimated to elicit 50% response, but other ECx values can be used. Since the isobole method is based on the potency of the components of the combination, an experimental design testing a range of rates expected to elicit the full range of responses (e.g., 0 to maximum response) is best. (Ferry et al. (2005) 2005 Conference on Applied Statistics in Agriculture Proceedings pp 33-50, Manhattan, Kans., Kansas State Univ.; Green and Streibig (1993) Herbicide Mixtures, pp 117-134 in Herbicide Bioassays, Streibig and Hudsk Eds, CRC, Boca Raton, Fla.).
Loglogistic dose response curves were fit to percent phytotoxicity response data using log 10 of dose (McCullagh and Nelder (1989) Generalized Linear Models, Chapman & Hall, London). Curves were fit using the logit link with normal errors. […]

With `CCc1cnc(C2=NC(C)(C(C)C)C(=O)N2)c(C(=O)O)c1` (stereo not shown) [Imazethapyr], the “Isobole Result, Als1 + Als2” value reads like this: (isobole analysis based on EC10) “Possible Synergy”; (isobole analysis based on EC10, listed as imazethapyr) “possible synergy effect”.

As to `COc1cc(OC)nc(NC(=O)NS(=O)(=O)c2ncccc2C(=O)N(C)C)n1` [Nicosulfuron], the “Isobole Result, Als1 + Als2” value runs as follows: (isobole analysis based on EC10) “Probable Synergy”; (isobole analysis based on EC10, listed as nicosulfuron) “probable synergy”.

On to `COc1cc(OC)nc(Sc2cccc(Cl)c2C(=O)O)n1` [Pyrithiobac sodium], for which the “Isobole Result, Als1 + Als2” value runs as follows: (isobole analysis based on EC50) “Synergy”; (isobole analysis based on EC50, listed as pyrithiobac sodium) “Synergistic interaction”.

Turning to `COc1nn(C(=O)NS(=O)(=O)c2ccccc2OC(F)(F)F)c(=O)n1C` [Flucarbazone], the “Isobole Result, Als1 + Als2” value reads like this: (isobole analysis based on EC10) “Synergy”; (isobole analysis based on EC10, listed as flucarbazon) “Synergistic interaction”.

With `Cc1cc(C)nc(NC(=O)NS(=O)(=O)c2ccccc2C(=O)O)n1` [Sulfometuron], the “Isobole Result, Als1 + Als2” value was “Synergy” (isobole analysis based on EC10) and “Synergistic interaction” (isobole analysis based on EC10, listed as sulfometuron).

Regarding `COc1nc(C)nc(N(C)C(=O)NS(=O)(=O)c2ccccc2C(=O)O)n1` [Tribenuron], the “Isobole Result, Als1 + Als2” value reads like this: (isobole analysis based on EC10) “Synergy”; (isobole analysis based on EC10, listed as tribenuron) “Synergistic interaction”.

On to `CC(C)C1(C)N=C(c2ncccc2C(=O)O)NC1=O` (stereo not shown) [Imazapyr], for which the “Isobole Result, Als1 + Als2” value (isobole analysis based on EC50) was “Synergy” and the “Isobole Result, Als1 + Als2” value (isobole analysis based on EC50, listed as imazapyr) is recorded as “Synergistic interaction”.

As to `CCS(=O)(=O)c1cccnc1S(=O)(=O)NC(=O)Nc1nc(OC)cc(OC)n1` [Rimsulfuron], the “Isobole Result, Als1 + Als2” value reads like this: (isobole analysis based on EC10) “Synergy”; (isobole analysis based on EC10, listed as rimsulfuron) “Synergistic interaction”.
